The whole screen tested about 52,000 sequences, of which about 210 (0.4%) were called active.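 Rule for the calls: active = gene whose silencing raises cell survival under the drug, median off-target-corrected z-score across its silencing RNAs 2 or more; inactive = the rest.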 Some of the results follow.
Assay: Resistance to Poly (ADP-Ribose) Polymerase inhibitor: Gene Identification via Genome-wide siRNA Screen
Conditions: mouse BRCA2 R2336H ES cells, olaparib, CellTiter-Glo viability; active compounds read high
How it was run: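 Mouse BRCA2 R2336H ES cells were reverse-transfected with siRNA (20 nM final), treated at 48 h with 500 nM olaparib, and read by CellTiter-Glo after 72 h. Scores: MAD-based z per siRNA, median per gene, seed off-target correction.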
With CCAUUCAAACAGCAUUCAUTT against Itpr1 the z-score was inactive: 0.287.
For GGAACUGCCUUCGACCUGATT against Galm, the z-score was inactive: -0.0752.
In the case of GGAAAAGUGACGGUAUCUATT against Lamr1, the z-score is reported as inactive: -3.2.
For GCUUGGUGUAAUCAUGCGCTT against Plfr, the z-score was inactive: -0.0373.
For “GGUUUUUCUAAGAGAACGGTT against 0610013E23Rik”, the z-score was inactive: -1.96.
With GGGCAAAACACUGUCUUUCTT against Tlr5 the z-score was inactive: -0.871.
With GGAGCAGAAGAAUGAAGGCTT against Sdbcag84 the z-score was inactive: -1.18.
In the case of “UAUGUCCUUGACAUUGGAGTT against 2310014L17Rik”, the z-score is reported as inactive: 0.597.
For CGUGAUCCCACAGAUGUAGTT against Csrp3, the z-score was inactive: -1.81.
For GGGAGAUGUAUGCUUGCUCTT against Evi2a, the z-score was inactive: -0.697.
With CGUUUGUUACUCUUCAGCUTT against Olfr1461 the z-score was inactive: -0.0837.
In the case of CGACUCCAAGGAUUUGACUTT against Anxa10, the z-score is reported as inactive: -0.821.
For GGCAACGGUACCUUUGUGGTT against Crtac1, the z-score was inactive: 1.69.
In the case of GGCCCUUUGAGUUAGAGAATT against Apln, the z-score is reported as inactive: -0.24.
For GGACCAGUACAACUUUAAUTT against Prf1, the z-score was inactive: -1.41.
In the case of GGAGGAGCAAAAGUCAGAATT against Palm, the z-score is reported as inactive: -1.01.
With “CCUUGUUCAAAAAGAUGGCTT against 0610012A11Rik” the z-score was inactive: -0.213.
For GGCAGACUCGACAGUUCAATT against Pde6h, the z-score was inactive: 0.234.
In the case of “GCGGAAACUUGUUAACGAATT against 1600014C10Rik”, the z-score is reported as inactive: -0.502.
In the case of GGCCAGACUUUCUGACUAUTT against Golga1, the z-score is reported as inactive: 0.258.
In the case of CCCUCACAACUUGAAGGACTT against Ccnk, the z-score is reported as inactive: -2.29.
In the case of GCCUGAACUGGCUAGAAAUTT against Tnfsf5ip1, the z-score is reported as inactive: -0.148.
In the case of GCUUCUUAGAGUCUUACCUTT against Rnf38, the z-score is reported as inactive: -1.77.
In the case of “GCUAAUCCAGGUAUUGUCATT against 5730469D23Rik”, the z-score is reported as inactive: 0.9.
In the case of “CGUGUUCCGGUCGAGUACUTT against 1700030E05Rik”, the z-score is reported as inactive: -0.715.
For CCGCUACCAGAUAAACUCGTT against BC053393, the z-score was inactive: -0.752.
In the case of CCCAAUCUCCUAAGAUCUGTT against Snca, the z-score is reported as inactive: -0.396.
For “GGCAUUUGGUCUUCAUAAATT against 1110032E23Rik”, the z-score was inactive: 0.393.
With GGGUGUAAAGAAACCUUAATT against Avpr2 the z-score was inactive: 2.27.
In the case of GCUCAAGACAUACUUUGAATT against Ddx56, the z-score is reported as inactive: -0.978.
With GGAAAAAGGAGGGUUUAGCTT against Tm4sf5 the z-score was inactive: 0.418.
With GGCAAUCAGCAUACCAACUTT against Thbs2 the z-score was inactive: 0.374.
In the case of CCAGAGGUAUUGAGAGUAATT against Apob48r, the z-score is reported as inactive: -3.18.
With GCAAUUCCACGUAUGGAUUTT against Olfr652 the z-score was inactive: 0.293.
For GGACUGACACUAUAAACUCTT against Ndufb2, the z-score was inactive: -0.27.
With CCGUGUAAGGUGUGGAGUGTT against BC025519 the z-score was inactive: -0.875.
With GGCUGGAGAAUUCUAGAAUTT against Lao1 the z-score was inactive: -0.8.
For GGACAGAUUCUCUGUGAAUTT against Cryab, the z-score was inactive: -0.828.
In the case of “CCAUUUUAUGGGAGUAUUATT against F730047E07Rik”, the z-score is reported as inactive: -1.79.
In the case of GGCAAAUUUUUGGAGAUGUTT against Hspa4, the z-score is reported as inactive: 1.43.
In the case of GGACUUGUAUUAGCAGGAATT against Pparg, the z-score is reported as inactive: -2.37.
In the case of CCCAAUAUUCAAGGAUAUATT against Gprk2l, the z-score is reported as inactive: -1.67.
In the case of CCACUACGAAAUCAUUUCCTT against Car9, the z-score is reported as inactive: 1.01.
In the case of GGCAAUGAUGAUCUCCUCUTT against Htra3, the z-score is reported as inactive: 0.678.
In the case of GCUAAGACUGUACUGUGACTT against BC052360, the z-score is reported as inactive: 0.534.
With GGCUAUGAAGCAGUACAAGTT against Refbp2 the z-score was inactive: -0.813.
For AUUGCAUUGUAUUCACUUGTT against BC050099, the z-score was inactive: 0.475.
In the case of GUGGGAUUCCAGUAGAAAUTT against Olfr1116, the z-score is reported as inactive: 0.235.
With “CCUUUGUAGUGCUAGUUAUTT against 5930418K15Rik” the z-score was inactive: 0.291.
For “CCAUCGGGAUUGACUAUGGTT against C330021A05Rik”, the z-score was inactive: 0.426.
With GCUCAGAAUAUCACAUCAATT against Ppm1b the z-score was inactive: 0.315.
With GACCCGCUGCUGCUCAAAUTT against Cdc42ep5 the z-score was inactive: -0.52.
For “CCUAUGGUGCUCUUAUAAATT against B930011P16Rik”, the z-score was inactive: 0.0288.
For CGUCAACUCCGACAUCUACTT against Tcerg1, the z-score was inactive: 1.48.
In the case of GGAAAAGGUUUUCUACAACTT against Ephx1, the z-score is reported as inactive: -0.2.
For GCCUUUUCUACCUACACAATT against Paqr4, the z-score was inactive: -0.282.
For “CCUAGAGGAUUCAGAUCAATT against 0710005I19Rik”, the z-score was inactive: 2.24.
For “GGCUCUUGAAAAAAACCCATT against 2700082D03Rik”, the z-score was inactive: -0.377.
With “GGAUUAAUGUUUCCUGACUTT against 2410066E13Rik” the z-score was inactive: 1.52.
With GCCGCCUAAUGUUGACUUUTT against Usp37 the z-score was inactive: -1.72.
For GGAUUCUAUGAGAAAGUUCTT against Abca7, the z-score was inactive: -0.0242.
With GGUGAUACUAACAGCGGAGTT against Sort1 the z-score was inactive: 0.924.
In the case of CUCAAAAUCUGGUGAUAAATT against Adam34, the z-score is reported as inactive: -0.266.
In the case of GGUUCAGAUCCCUAAAAUATT against Eif2c4, the z-score is reported as inactive: -0.977.
In the case of GGAUAAACUUCCAUCUUUCTT against Car14, the z-score is reported as inactive: 1.27.
With CCGUAAGGAUAUUCUCUAGTT against Pelo the z-score was inactive: -2.01.
For “GGUGCUGUUGAAUUGUGGGTT against 2610312E17Rik”, the z-score was inactive: 0.398.
For CGGCUACUAUGUGAAACUGTT against Jph1, the z-score was inactive: -1.91.
In the case of “CGGACGGCAGAAGAAAAAGTT against 9530033F24Rik”, the z-score is reported as inactive: -1.27.
For “CGAGAAAAGACUAUGAUCCTT against 2410017P07Rik”, the z-score was inactive: 0.263.
For GGUGAUAAAGUCAUUCCACTT against Adh1, the z-score was inactive: -1.76.
With GGGUAUGGAUUCCUGUCAGTT against Pcca the z-score was inactive: -1.72.
With CCCGGGAUAGAGAGGAAAUTT against Nbl1 the z-score was inactive: -0.401.
With GGAGUUCUUUACAUUGGACTT against Olfr554 the z-score was inactive: -0.0131.
For CCCAAGUGGCAUCUAUUCATT against Capn3, the z-score was inactive: -1.06.
For “GGUUCUAAAUCAGAAGUGCTT against 1110034B05Rik”, the z-score was inactive: -0.496.
With “CCAAAGGUGUGUGAUACUGTT against 2010107G23Rik” the z-score was inactive: 0.0261.
In the case of GGAAAAAUCAGUUUCGUCUTT against Dgkq, the z-score is reported as inactive: 0.778.
In the case of CGACUCUGAAGCUAAACAATT against Npr3, the z-score is reported as inactive: -0.00231.
For GGCUAAGUACUCAGCAUAGTT against Ctf2, the z-score was inactive: -2.
In the case of “CCCACAUCGAUGGUUAGCUTT against 4930534B04Rik”, the z-score is reported as inactive: -0.199.
For “GGAAGUGGGUAGCAACCAATT against 4833436C18Rik”, the z-score was inactive: -0.614.
In the case of GCACUUACUCAUUAAUCACTT against Rnf20, the z-score is reported as inactive: 0.939.
For GGACACCAACUUUCUGCCCTT against Wisp2, the z-score was inactive: -0.903.
With GGUCAGACCUGUUGAUAGATT against Nr3c1 the z-score was inactive: -0.254.
In the case of GCUCUAAACAUGAUUCAAGTT against Akap9, the z-score is reported as inactive: 1.92.
For GCUCACCUGAGUCAAUGAUTT against Nr5a2, the z-score was inactive: -0.711.
In the case of GGUGAACCUCAAUAAUAUCTT against Tmod4, the z-score is reported as inactive: -0.00862.
With GGGCCUAAGAAGCAUUACUTT against Np15 the z-score was inactive: -0.758.
For GGUAGCAUUAUUUGUCCUATT against Pcdh15, the z-score was inactive: 0.935.
With GGAGAAACGCAAGAAACGUTT against U2af1-rs1 the z-score was inactive: -0.63.
For CCAUUGUGCAUUAAACAUUTT against Mrpl35, the z-score was inactive: 0.776.
With “GGAACUGGCAAGUUAGUUUTT against 3010003L21Rik” the z-score was inactive: -0.216.
With GGAGUUACCUUUCGAUAGGTT against Sec10l1 the z-score was inactive: -0.437.
With GCUCCUCUCCAAGGUCAUUTT against Olfr96 the z-score was inactive: -0.114.
In the case of GGACAGAACCAUCUGAAGGTT against Pycs, the z-score is reported as inactive: -2.77.
With GGAAGAUGUGACCAAUUCUTT against Gpr73 the z-score was inactive: 0.368.
For GGUACACUAUACUUACAUATT against Dcl1, the z-score was inactive: -0.562.
For “GCUGUCGAGUAGAUGUCUUTT against F830014G06Rik”, the z-score was inactive: -2.23.
With “GGGUGUCAAUCUAAAACAUTT against 1110014P06Rik” the z-score was inactive: 0.933.
With GGUCUCAUUUCAAAUGGUUTT against Rnf127 the z-score was inactive: 0.0923.
In the case of GGACAUUGGAUUCUUCAUCTT against Grap2, the z-score is reported as inactive: 0.469.
In the case of GGCGGAUCAAACUCGGAUUTT against Pou3f2, the z-score is reported as inactive: 0.0964.
